Structures can show the parent of a compound that is named as a salt. ± gives the standard deviation of the averaged measurements. Some of the results follow. Repeats in this data set agree poorly, so a single value says little.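 Cell counts came from imaging DAPI-stained nuclei, excluding as dead any cells lacking phalloidin-stained cytoplasm. Counts per well were normalized to the median vehicle-well count on that plate, and the values were averaged over two replicate plates.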

In this experiment the test system is OVCAR8. Put plainly: cell count relative to DMSO vehicle (fold change); higher = more surviving senescent cells (less killing). Particulars: senescence inducer: cisplatin 10 µM 48 h, then 6 d recovery (CP senescent), exposure time 24 h.

For the compound `C[C@H]1[C@@H](O)O[C@@H]2O[C@@]3(C)CC[C@H]4[C@H](C)CC[C@@H]1[C@@]24OO3` [Dihydroartemisinin], the cell count reads like this: (compound dose 1 µM) 1.04 ± 0.13; (compound dose 5 µM) 0.936 ± 0.14.

In the case of `O=c1n(CC2CO2)c(=O)n(CC2CO2)c(=O)n1CC1CO1` (stereo unspecified) [Triglycidyl isocyanurate], the cell count is, setting by setting: (compound dose 1 µM) 1.091 ± 0.005; (compound dose 5 µM) 1.14 ± 0.018.

For the compound `CCOC(=O)c1ccc(N2NC(=O)C(=Cc3ccc([N+](=O)[O-])o3)C2=O)cc1`, the cell count worked out at 1.04 ± 0.025 (compound dose 1 µM) and 1.05 ± 0.073 (compound dose 5 µM).

Turning to `N#CN=C(NCCCCCCOc1ccc(Cl)cc1)Nc1ccncc1`, the cell count runs as follows: (compound dose 1 µM) 1.02 ± 0.25; (compound dose 5 µM) 0.897 ± 0.36.

Regarding `CCNC(=O)c1noc(-c2cc(Cl)c(O)cc2O)c1-c1ccc(OC)cc1`, the cell count is, setting by setting: (compound dose 1 µM) 0.391 ± 0.038; (compound dose 5 µM) 0.351 ± 0.018.

Regarding `CC(C)=CCC[C@](C)(O[C@@H]1O[C@H](CO)[C@@H](O)[C@H](O)[C@H]1O)[C@H]1CC[C@]2(C)[C@@H]1[C@H](O)C[C@@H]1[C@@]3(C)CC[C@H](O)C(C)(C)[C@@H]3[C@@H](O[C@@H]3O[C@H](CO)[C@@H](O)[C@H](O)[C@H]3O[C@@H]3OC[C@@H](O)[C@H](O)[C@H]3O)C[C@]12C` [Notoginsenoside R1], the cell count (compound dose 1 µM) is 1.18 ± 0.12 and the cell count (compound dose 5 µM) was found to be 0.64 ± 0.55.

Consider `C/C=C(/C)C(=O)OC(C)(C)[C@@H]1Cc2c(ccc3ccc(=O)oc23)O1` [Columbianadin], for which the cell count amounted to 0.844 ± 0.099 (compound dose 1 µM) and 0.814 ± 0.069 (compound dose 5 µM).

Regarding `C[C@]12C=CC(=O)C=C1CC[C@@H]1[C@@H]2C(=O)C[C@@]2(C)[C@H]1CC[C@]2(O)C(=O)CO`, the cell count reads like this: (compound dose 1 µM) 0.998 ± 0.011; (compound dose 5 µM) 0.673 ± 0.42.

The compound `COC(=O)CC[C@H](NC(=O)[C@H](CC(=O)OC)NC(=O)OCc1ccccc1)C(=O)N[C@H](C(=O)N[C@@H](CC(=O)OC)C(=O)CF)C(C)C` gave a cell count (compound dose 1 µM) of 1.04 ± 0.078 and a cell count (compound dose 5 µM) of 0.927 ± 0.052.

As to `Fc1ccc(Nc2nc3ccccc3nc2Nc2ccc(F)cc2)cc1`, the cell count (compound dose 1 µM) was found to be 1.18 ± 0.098 and the cell count (compound dose 5 µM) was 0.926 ± 0.088.

On to `CCC[C@H](NC(=O)/C(C#N)=C/c1cccc(Br)n1)c1ccccc1` [Degrasyn], for which the cell count is 1.16 ± 0.077 (compound dose 1 µM) and 0.116 ± 0.034 (compound dose 5 µM).

Regarding `CC(=O)Nc1c(I)c(NC(C)=O)c(I)c(C(=O)O)c1I`, the cell count amounted to 0.892 ± 0.27 (compound dose 1 µM) and 0.471 ± 0.07 (compound dose 5 µM).

In the case of `CC(=O)Nc1c(I)c(NC(C)=O)c(I)c(C(=O)O)c1I` [Sodium diatrizoate], the cell count is, setting by setting: (compound dose 1 µM) 0.976 ± 0.026; (compound dose 5 µM) 0.979 ± 0.22.

For `O=C(Nc1cccc(-c2nncn2C2CC2)c1)c1cc(-n2cnc(C3CC3)c2)ccn1`, the cell count is, setting by setting: (compound dose 1 µM) 1 ± 0.071; (compound dose 5 µM) 1.026 ± 0.0021.

Take `CCC(C)(C)C(=O)C(=O)N1CCC[C@H]1C(=O)OCCCc1cccnc1`: the cell count reads like this: (compound dose 1 µM) 1.17 ± 0.049; (compound dose 5 µM) 1.09 ± 0.17.

On to `CN1CCCC(CN2c3ccccc3Sc3ccccc32)C1` (stereo unspecified) [Mepazine (hydrochloride)], for which the cell count runs as follows: (compound dose 1 µM) 0.785 ± 0.0014; (compound dose 5 µM) 0.792 ± 0.15.

Turning to `CN[C@@H](C)C(=O)N[C@H](C(=O)N1CCC[C@H]1C(=O)Nc1snnc1-c1ccccc1)C1CCCCC1`, the cell count by setting is: (compound dose 1 µM) 0.534 ± 0.032; (compound dose 5 µM) 0.298 ± 0.2.

`O=C(/C=C/c1ccc2ccc(C(F)(F)F)cc2n1)c1ccncc1` returned a cell count (compound dose 1 µM) of 0.991 ± 0.098 and a cell count (compound dose 5 µM) of 0.116 ± 0.025.

Regarding `Cc1ccc(/C=N/NC(=O)c2ccccc2Oc2ccccc2)o1`, the cell count by setting is: (compound dose 1 µM) 1.04 ± 0.11; (compound dose 5 µM) 1.05 ± 0.08.

In the case of `CC(C)(O)CC[C@@H](O)[C@](C)(O)[C@H]1CC[C@@]2(O)C3=CC(=O)[C@@H]4C[C@@H](O)[C@@H](O)C[C@]4(C)[C@H]3CC[C@]12C`, the cell count by setting is: (compound dose 1 µM) 0.905 ± 0.0085; (compound dose 5 µM) 0.703 ± 0.076.

Regarding `C[n+]1cccc(C(=O)[O-])c1`, the cell count came to 0.836 ± 0.1 (compound dose 1 µM) and 0.741 ± 0.088 (compound dose 5 µM).

For `COc1cc(C)c(/C=C/C(C)=C/C=C/C(C)=C/C(=O)O)c(C)c1C` [Acitretin], the cell count was 1.02 ± 0.083 (compound dose 1 µM) and 1 ± 0.15 (compound dose 5 µM).

`O=c1[nH]c(=O)n([C@H]2C[C@H](O)[C@@H](CO)O2)cc1F` [Floxuridine]: the cell count stood at 0.987 ± 0.11 (compound dose 1 µM) and 0.834 ± 0.16 (compound dose 5 µM).

Turning to `COc1cc2c(NC3CCN(C)CC3)cc(-c3ccc(C)o3)nc2cc1OCCCN1CCCC1`, the cell count runs as follows: (compound dose 1 µM) 0.875 ± 0.14; (compound dose 5 µM) 0.486 ± 0.077.

Consider `C/C(=N\NC(=S)N1CCC1)c1ccccn1`, for which the cell count runs as follows: (compound dose 1 µM) 0.875 ± 0.0028; (compound dose 5 µM) 0.984 ± 0.098.

As for `O=C1C(=O)N(Cc2ccc(Cl)c(Cl)c2)c2ccccc21`, the cell count is, setting by setting: (compound dose 1 µM) 1.11 ± 0.16; (compound dose 5 µM) 0.93 ± 0.18.

As for `COc1cccc(-c2cc(F)c(Nc3ncccc3C(=O)O)c(F)c2)c1`, the cell count came to 1 ± 0.059 (compound dose 1 µM) and 1.09 ± 0.19 (compound dose 5 µM).

With `O=C(O)C(Cc1ccccc1[N+](=O)[O-])=NNc1nc(-c2ccc(Cl)c(Cl)c2)cs1` (mixture of isomers), the cell count reads like this: (compound dose 1 µM) 1.26 ± 0.08; (compound dose 5 µM) 1.18 ± 0.018.

In the case of `O=C(O)CSc1cc(NS(=O)(=O)c2ccc(Br)cc2)c2ccccc2c1O`, the cell count stood at 1.09 ± 0.037 (compound dose 1 µM) and 0.764 ± 0.096 (compound dose 5 µM).

Regarding `N#C[C@H]1[C@H](O)[C@@H](CO)O[C@H]1n1ccc(N)nc1=O` [CNDAC (hydrochloride)], the cell count turned out to be 0.967 ± 0.03 (compound dose 1 µM) and 0.925 ± 0.054 (compound dose 5 µM).

On to `Nc1ncnc(N[C@@H]2O[C@H](CO)[C@@H](O)[C@H]2O)c1[N+](=O)[O-]` [Clitocine], for which the cell count is, setting by setting: (compound dose 1 µM) 0.928 ± 0.1; (compound dose 5 µM) 0.931 ± 0.1.

The compound `N[C@@H](CCC(=O)O)C(=O)O` [L-Glutamic acid] came in with a cell count (compound dose 1 µM) of 1.19 ± 0.22 and a cell count (compound dose 5 µM) of 1.115 ± 0.011.

`COc1cc2c(cc1O)CC[C@@H]1[C@@H]2CC[C@]2(C)[C@@H](O)CC[C@@H]12` [2-Methoxyestradiol]: the cell count (compound dose 1 µM) amounted to 1.08 ± 0.25 and the cell count (compound dose 5 µM) turned out to be 0.866 ± 0.031.

`O=c1[nH]c(=O)n([C@@H]2O[C@H](CO)[C@@H](O)[C@H]2O)cc1F` [5-Fluorouridine]: the cell count by setting is: (compound dose 1 µM) 0.751 ± 0.1; (compound dose 5 µM) 0.618 ± 0.21.

With `NC(=O)c1ccc2nc(-c3ccc(Oc4ccc(Cl)cc4)cc3)[nH]c2c1`, the cell count runs as follows: (compound dose 1 µM) 0.987 ± 0.14; (compound dose 5 µM) 1.24 ± 0.073.

As to `Cc1cnc(Nc2ccc(N3CCN(C)CC3)cc2)nc1Nc1cccc(S(=O)(=O)NC(C)(C)C)c1`, the cell count (compound dose 1 µM) was found to be 0.857 ± 0.24 and the cell count (compound dose 5 µM) amounted to 0.293 ± 0.24.

Take `OCC1(O)COc2cc(O)ccc2-c2cc(O)c(O)cc2C1` (stereo unspecified) [Protosappanin B]: the cell count (compound dose 1 µM) stood at 0.911 ± 0.1 and the cell count (compound dose 5 µM) worked out at 0.931 ± 0.21.

`CC[C@@]1(O)C(=O)OCc2c1cc1n(c2=O)Cc2cc3cc(O)ccc3nc2-1` [(S)-10-Hydroxycamptothecin] registered a cell count (compound dose 1 µM) of 0.598 ± 0.039 and a cell count (compound dose 5 µM) of 0.701 ± 0.11.

For `COc1ccc(-c2oc3c(CC=C(C)C)c(O)cc(O)c3c(=O)c2O[C@@H]2O[C@@H](C)[C@H](O)[C@@H](O)[C@H]2O)cc1` [Baohuoside I], the cell count is, setting by setting: (compound dose 1 µM) 1.12 ± 0.13; (compound dose 5 µM) 1.04 ± 0.017.

As to `CN1CCN(CCCNc2ncc(Cl)c(-c3cc4c(C(=O)NC5CC5)cccc4s3)n2)CC1`, the cell count was 1.18 ± 0.086 (compound dose 1 µM) and 1.09 ± 0.084 (compound dose 5 µM).

Consider `CC(C)=CCC[C@@H](C(=O)O)[C@H]1CC[C@@]2(C)C3=CC[C@H]4C(C)(C)[C@@H](O)CC[C@]4(C)C3=CC[C@]12C` [3-Dehydrotrametenolic acid], for which the cell count (compound dose 1 µM) was 1.12 ± 0.032 and the cell count (compound dose 5 µM) amounted to 1.09 ± 0.076.

Consider `NC1(c2ccc(-c3nc4ccn5c(=O)[nH]nc5c4cc3-c3ccccc3)cc2)CCC1` [MK-2206 (dihydrochloride)], for which the cell count by setting is: (compound dose 1 µM) 0.83 ± 0.068; (compound dose 5 µM) 0.564 ± 0.29.

Consider `C[C@@H]1O[C@@H](Oc2c(-c3ccc(O)c(O)c3)oc3cc(O)cc(O)c3c2=O)[C@H](O)[C@H](O)[C@H]1O` [Quercitrin], for which the cell count is, setting by setting: (compound dose 1 µM) 1.093 ± 0.0028; (compound dose 5 µM) 0.809 ± 0.13.

These data come from the supplement of paper PMC12462457.
